PubChem BioAssay AID602196 – INSERM – 2012
This is one part, drawn at random, of about 23,000 deposited reagents. Of all reagents, 455 (2%) were called active. 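Active includes both protection and sensitisation; some change values fall well beyond the stated -50 to +50 range.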 Not given: the amount of reagent.

Assay: 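Genes whose knock-down alters cisplatin killing of lung cancer cells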
Cells: human A549 lung cancer cells
Reagent: siRNA pair against human genes
Duration: 48 h transfection before cisplatin; time from cisplatin to read-out not stated
Treatment: cisplatin at a dose killing half of control-siRNA cells; exact dose and duration not given
Measurement: 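Cisplatin cell death as a shift from the 50% death seen with control siRNA; siRNAs toxic or growth-blocking alone scored 0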
Reading the numbers: two-siRNA summed score (-2 to +2): higher = both siRNAs protect from cisplatin killing; -2 means both sensitise; mean protection from cisplatin (shift in death) and protection from cisplatin (shift in death), siRNA C and protection from cisplatin (shift in death), siRNA D: higher = protection from cisplatin killing
Active means: 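siRNAs harmful alone (LDH or WST-1) get 0; others get +1 for less and -1 for more cisplatin killing; genes are active when the two siRNAs give the same sign, summing to ±2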
Calls: active = both siRNAs shift cisplatin killing the same way; inactive = no consistent shift, or siRNA harmful alone

no.	Gene	two-siRNA summed score (-2 to +2)	mean protection from cisplatin (shift in death) (%)	protection from cisplatin (shift in death), siRNA C (%)	protection from cisplatin (shift in death), siRNA D (%)	Outcome
1	LOC389333	0	4.2	9.9	-1.5	inactive
2	HS3ST2	0	-4	-2.2	-5.7	inactive
3	ZNF136	0	7.9	-0.9	16.8	inactive
4	MARVELD1	0	12.1	16.6	7.6	inactive
5	ROPN1L	0	-1.6	-7.6	4.5	inactive
6	SRSF7	1	17.6	13.3	22	inactive
7	CCDC33	0	2.2	12.9	-8.4	inactive
8	AGAP4	0	-4.3	-20.9	12.3	inactive
9	LOC388889	-1	-4.7	7.8	-17.3	inactive
10	PDK3	0	9.3	14.6	3.9	inactive
11	ADCY10	0	4.9	8.1	1.8	inactive
12	IL37	0	11.6	9.7	13.4	inactive
13	UROC1	0	-5.2	-9	-1.4	inactive
14	TOR2A	0	11.4	12.1	10.6	inactive
15	OVOL2	1	0.6	13	-11.8	inactive
16	CGNL1	0	9.2	16.4	2	inactive
17	NIPSNAP3A	0	2.3	-5.1	9.7	inactive
18	IGFBPL1	0	0.8	5.9	-4.2	inactive
19	FUNDC1	-1	-3.6	-13.8	6.6	inactive
20	ZNF554	0	10.7	13	8.3	inactive
21	MAMLD1	0	27.8	8.4	47.2	inactive
22	UTP23	1	11.6	23.3	-0.1	inactive
23	OR2AG2	2	20.7	27.7	13.7	active
24	USPL1	0	9.8	8	11.7	inactive
25	GRIN3A	0	14	24.4	3.6	inactive
26	OR11H1	0	14.1	29.9	-1.7	inactive
27	LOC440801	0	6.8	1.3	12.2	inactive
28	PPP4R1	0	2.8	8.1	-2.5	inactive
29	LOC387897	0	1.6	15.2	-11.9	inactive
30	AP1B1	0	0.3	-5.5	6	inactive
31	IKBKE	1	9.1	31.5	-13.4	inactive
32	FLRT1	-1	-15.1	-19.1	-11.1	inactive
33	TSEN54	0	-8.1	-5.3	-10.8	inactive
34	ABCG8	1	7.9	-4	19.8	inactive
35	FAM111A	0	8.6	8.6	8.6	inactive
36	OMG	1	17.1	10.5	23.7	inactive
37	GDF1	1	16.9	16.2	17.5	inactive
38	PDGFRL	0	9.9	-9.7	29.6	inactive
39	IL17A	-1	-16.6	-11.7	-21.5	inactive
40	ZNF300	1	16.6	20.4	12.8	inactive
41	SULT1E1	0	12.2	8.9	15.6	inactive
42	DCUN1D3	0	-2.1	-3.2	-1.1	inactive
43	MARCHF3	0	-0.7	-6.7	5.2	inactive
44	ZNF436	0	4.1	-0.2	8.4	inactive
45	DISP2	1	5.8	21.1	-9.5	inactive
46	ZNF581	0	1.6	-7.1	10.3	inactive
47	LOC388122	2	21	22.1	19.8	active
48	CORO1C	0	7.6	4.3	10.9	inactive
49	ZFPM2	1	12	6.7	17.3	inactive
50	KIR2DS4	1	13.7	15	12.4	inactive
51	GRIN2C	0	-3	-7.5	1.6	inactive
52	LOC442050	0	11.5	14.2	8.7	inactive
53	LOC389607 (retired record)	1	13.4	11.2	15.6	inactive
54	LIPI	0	-7.4	14.8	-29.6	inactive
55	LOC390364	0	4.2	8.2	0.3	inactive
56	LOC402148	1	7.1	9.8	4.4	inactive
57	TENT4A	0	3.2	10.4	-3.9	inactive
